The values are deposited in ChEMBL (CHEMBL3988442, “University of Dundee, Small-Polar-MMV Screening Library” (2021)).

A: 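Growth of Mycobacterium tuberculosis over 4 days (cholesterol / DPPC medium with tyloxapol); the read-out is not stated. Compounds at 500 µM. Direction is inferred from retests: higher values go with more growth inhibition. Size under these conditions: about 18,000 compounds, about 900 of them at 50% or above in at least one test.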
B: 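Phenotypic screen: M. tuberculosis growth, glucose 7H9 medium, 3 days; the read-out is not stated. Tested at 500 µM. Direction is inferred from retests: higher values go with more growth inhibition. Size under these conditions: about 18,000 compounds, about 1,400 of them at 50% or above in at least one test.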

Results are given as percent effect. How 0% and 100% were set is not recorded. Most values in the screen are low, and negative values occur. This is an unselected part of the compounds tested.

With COc1ccc(C(=O)NCc2ncnn2C)cc1Br the screen gave A: 23.1%; B: 63.88%. With NCC(CO)Cc1ccncc1 (stereo not drawn) the screen gave A: -29.97%; B: -11.73%. For Cc1nc(CN(C)C(=O)[C@H]2CCC[C@H](O)C2)no1 the result was A: -29.74%; B: -39.64%. O=C(CN1CCCC1)N1CCc2sccc2C1 read A: -13.88%; B: -15.13%. For CCC=C(C)C(=O)NC1CCN(C(C)=O)CC1 the result was A: -14.34%; B: 16.98%. Cc1nnc(C2COCCN2)o1 (stereo not drawn) gave A: -5.489%; B: 5.375%. CC(=O)NCCCSCc1csc(NC(C)=O)n1 read A: -3.562%; B: -0.4497%.

c1ncn(C2CCCCC2)c1CN1CCNCC1 read A: -19.79%; B: -6.853%. Result for Cc1n[nH]cc1CNC(C)Cn1cccn1 (stereo not drawn) was A: 3.905%; B: -2.925%. COC(=O)Cc1ccc(OCC(=O)NC2CC2)cc1 read A: 22.5%; B: 12.63%. With O=C(Nc1ccc(NC(=O)C2CC2)nc1)c1ccsc1 the screen gave A: -5.784%; B: -5.083%. CCCn1nc(-c2nc(-c3cocn3)no2)ccc1=O gave A: 0.7945%; B: -0.9301%. Result for CN(C)C(=O)CN1CCN(Cc2csc(Br)c2)CC1 was A: 1.457%; B: 25.99%. With CC(C(=O)Nc1ccc2c(c1)CCC2)S(C)(=O)=O (stereo not drawn) the screen gave A: 4.197%; B: 27.27%.

CC(CO)(CO)NCc1cc2cc(F)ccc2o1 gave A: 9.821%; B: 5.893%. Result for CN(C)C(=O)CCNCCn1cccn1 was A: -1.963%; B: -0.2987%. CC(C)=CCC1(CO)CCCN(CCS(C)(=O)=O)C1 (stereo not drawn) read A: 13.21%; B: 15.91%. Result for COc1cc(F)c(C(=O)N[C@@H]2CCNC[C@H]2O)c(F)c1 was A: 3.643%; B: -1.752%. CC(C)(O)CSc1nnc(NCc2ccco2)s1 read A: 80.02%; B: 68.61%. N#Cc1cc(F)ccc1N1CCNCC1 gave A: 12.51%; B: 23.47%. CN(C(=O)c1cnn(C)c1)c1ccc2c(c1)CCO2 read A: 13.07%; B: 21.05%.

For CCN1CCN(Cc2nc(C(C)C)no2)CC1 the result was A: 7.655%; B: 3.769%. COc1c(CNC(=O)c2cccs2)c(C)nn1C read A: -16.54%; B: 1.718%. Cc1nccc(CNc2ncc(C(N)=O)cc2Cl)n1 read A: 4.317%; B: 3.531%. Result for COC[C@]1(O)CCN(c2ccncc2F)CC1(C)C was A: 20.52%; B: 17.88%. With OC(CNCc1csnn1)Cc1ccc(F)cc1F (stereo not drawn) the screen gave A: 1.019%; B: 16.18%. CCN1CCC(NC(=O)CC(C)(C)C)CC1 read A: 10.07%; B: 4.463%. Cc1cc(C(=O)NC2CCC(=O)N(C)C2)c(C)o1 (stereo not drawn) gave A: -0.7545%; B: 1.283%.

CC1(O)CN(S(=O)(=O)CCCC#N)C1 gave A: 0.05113%; B: 4.618%. For CC(C)c1[nH][nH]c(=O)c1CCN the result was A: 17.66%; B: 31.67%. Result for Cc1cc(C(=O)NCCOc2ncccc2Cl)[nH]n1 was A: 25.67%; B: 41.31%. COCCN1CCN(CC(=O)NCC(F)(F)F)CC1C (stereo not drawn) read A: -3.286%; B: -27.66%. For Cn1c(=O)oc2ccc(CC#N)cc21 the result was A: 4.728%; B: 0.6654%. For COC(=O)CSc1nnc(C(F)(F)F)n1C the result was A: -9.671%; B: -3.557%. Cc1[nH]ncc1C(=O)NCCCSCC(C)C read A: 20.92%; B: 57.05%.

COc1ccc(C(=O)NC(C)Cn2cccn2)c(O)c1 (stereo not drawn) gave A: 72.87%; B: 65.8%. For CC(CCc1ccc(O)cc1)NCCN1CCOCC1 (stereo not drawn) the result was A: -3.364%; B: -4.629%. CNC(=O)CCNCc1ccc(Br)cc1 gave A: 37.28%; B: 37.23%. COCC1CCN(CC(=O)Nc2ccn(C)n2)C1 (stereo not drawn) read A: 3.304%; B: 9.604%. For Cn1nc(C(=O)N2CCOCC2)c(Br)c1C(F)(F)F the result was A: 20.62%; B: 10.41%.

Repeated from the top, 3 entries:

Result for COc1ccc(C(=O)NCc2ncnn2C)cc1Br was A: 23.1%; B: 63.88%.
Result for NCC(CO)Cc1ccncc1 (stereo not drawn) was A: -29.97%; B: -11.73%.
Result for Cc1nc(CN(C)C(=O)[C@H]2CCC[C@H](O)C2)no1 was A: -29.74%; B: -39.64%.